Experimental data: the supplement of paper PMC12067093, “Discovery and optimisation of a covalent ligand for TRIM25 and its application to targeted protein ubiquitination” (Chemical Science, 2025)
This is one part of the list.

Amino acid sequences for entries named in this document (tags omitted). A change or cut given only in a name is not applied to a line headed by its entry.
UniProt Q9UGP4: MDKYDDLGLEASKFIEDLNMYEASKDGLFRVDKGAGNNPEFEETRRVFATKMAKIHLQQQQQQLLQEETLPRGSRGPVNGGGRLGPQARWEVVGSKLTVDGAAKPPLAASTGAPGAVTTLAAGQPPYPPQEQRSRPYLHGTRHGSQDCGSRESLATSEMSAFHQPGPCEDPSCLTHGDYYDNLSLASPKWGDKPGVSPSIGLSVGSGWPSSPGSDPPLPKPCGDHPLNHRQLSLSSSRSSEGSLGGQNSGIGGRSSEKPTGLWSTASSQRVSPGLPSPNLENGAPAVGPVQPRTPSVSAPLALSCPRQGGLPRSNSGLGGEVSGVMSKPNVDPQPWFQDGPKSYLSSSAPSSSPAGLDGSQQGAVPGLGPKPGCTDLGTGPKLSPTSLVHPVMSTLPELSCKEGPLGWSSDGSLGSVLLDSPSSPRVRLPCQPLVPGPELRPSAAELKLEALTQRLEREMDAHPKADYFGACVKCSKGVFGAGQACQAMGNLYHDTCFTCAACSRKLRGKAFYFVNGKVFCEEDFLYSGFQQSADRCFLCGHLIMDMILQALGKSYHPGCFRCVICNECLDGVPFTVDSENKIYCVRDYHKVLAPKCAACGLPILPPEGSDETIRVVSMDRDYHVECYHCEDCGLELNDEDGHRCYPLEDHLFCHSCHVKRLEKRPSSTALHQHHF
UniProt O60711: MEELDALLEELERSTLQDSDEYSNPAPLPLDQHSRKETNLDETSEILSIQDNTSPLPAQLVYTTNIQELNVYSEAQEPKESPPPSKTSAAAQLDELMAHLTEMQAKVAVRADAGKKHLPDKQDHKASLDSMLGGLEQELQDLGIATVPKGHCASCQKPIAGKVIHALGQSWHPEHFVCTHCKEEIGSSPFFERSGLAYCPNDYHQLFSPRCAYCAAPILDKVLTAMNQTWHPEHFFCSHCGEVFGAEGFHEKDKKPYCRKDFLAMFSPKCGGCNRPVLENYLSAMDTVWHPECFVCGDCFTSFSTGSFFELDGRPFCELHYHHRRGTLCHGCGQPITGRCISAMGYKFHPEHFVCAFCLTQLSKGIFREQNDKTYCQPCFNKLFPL
UniProt Q8N1G4: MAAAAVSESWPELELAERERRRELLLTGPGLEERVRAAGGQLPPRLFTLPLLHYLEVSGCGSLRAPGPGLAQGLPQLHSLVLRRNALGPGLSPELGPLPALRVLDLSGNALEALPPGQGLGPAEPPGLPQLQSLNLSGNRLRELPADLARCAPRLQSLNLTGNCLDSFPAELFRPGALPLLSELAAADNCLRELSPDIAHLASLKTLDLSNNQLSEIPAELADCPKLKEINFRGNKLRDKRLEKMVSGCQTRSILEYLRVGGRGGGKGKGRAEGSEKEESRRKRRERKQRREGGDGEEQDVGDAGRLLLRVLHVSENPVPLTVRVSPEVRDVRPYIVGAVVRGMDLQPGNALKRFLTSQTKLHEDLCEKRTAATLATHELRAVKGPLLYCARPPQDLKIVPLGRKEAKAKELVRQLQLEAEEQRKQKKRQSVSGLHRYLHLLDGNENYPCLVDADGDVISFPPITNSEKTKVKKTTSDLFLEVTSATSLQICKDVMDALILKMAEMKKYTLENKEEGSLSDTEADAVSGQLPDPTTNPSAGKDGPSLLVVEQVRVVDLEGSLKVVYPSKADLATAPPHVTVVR
UniProt Q9UK45: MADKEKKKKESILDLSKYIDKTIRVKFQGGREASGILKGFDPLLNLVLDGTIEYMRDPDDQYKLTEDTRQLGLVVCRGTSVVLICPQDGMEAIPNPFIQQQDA
UniProt Q9Y333: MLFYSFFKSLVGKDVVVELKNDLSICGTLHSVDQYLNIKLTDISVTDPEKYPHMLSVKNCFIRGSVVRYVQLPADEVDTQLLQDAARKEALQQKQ
UniProt Q9Y2L9: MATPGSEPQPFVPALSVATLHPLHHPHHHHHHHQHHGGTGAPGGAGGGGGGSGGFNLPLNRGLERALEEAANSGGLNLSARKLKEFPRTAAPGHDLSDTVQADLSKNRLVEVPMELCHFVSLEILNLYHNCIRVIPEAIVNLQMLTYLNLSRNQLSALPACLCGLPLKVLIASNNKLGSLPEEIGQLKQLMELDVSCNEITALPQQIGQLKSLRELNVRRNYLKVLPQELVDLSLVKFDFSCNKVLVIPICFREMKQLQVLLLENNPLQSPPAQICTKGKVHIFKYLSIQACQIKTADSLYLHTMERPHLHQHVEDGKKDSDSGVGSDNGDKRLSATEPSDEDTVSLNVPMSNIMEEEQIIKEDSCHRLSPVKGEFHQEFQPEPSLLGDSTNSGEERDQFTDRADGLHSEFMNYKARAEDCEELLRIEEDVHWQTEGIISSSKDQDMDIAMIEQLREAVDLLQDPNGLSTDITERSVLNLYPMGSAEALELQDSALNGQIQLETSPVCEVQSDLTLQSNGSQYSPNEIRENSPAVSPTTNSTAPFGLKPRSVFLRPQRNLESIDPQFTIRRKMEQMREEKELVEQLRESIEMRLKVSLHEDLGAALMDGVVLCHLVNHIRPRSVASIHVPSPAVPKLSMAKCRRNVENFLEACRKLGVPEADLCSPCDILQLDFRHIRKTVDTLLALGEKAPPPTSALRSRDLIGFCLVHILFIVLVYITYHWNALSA
UniProt Q9Y608: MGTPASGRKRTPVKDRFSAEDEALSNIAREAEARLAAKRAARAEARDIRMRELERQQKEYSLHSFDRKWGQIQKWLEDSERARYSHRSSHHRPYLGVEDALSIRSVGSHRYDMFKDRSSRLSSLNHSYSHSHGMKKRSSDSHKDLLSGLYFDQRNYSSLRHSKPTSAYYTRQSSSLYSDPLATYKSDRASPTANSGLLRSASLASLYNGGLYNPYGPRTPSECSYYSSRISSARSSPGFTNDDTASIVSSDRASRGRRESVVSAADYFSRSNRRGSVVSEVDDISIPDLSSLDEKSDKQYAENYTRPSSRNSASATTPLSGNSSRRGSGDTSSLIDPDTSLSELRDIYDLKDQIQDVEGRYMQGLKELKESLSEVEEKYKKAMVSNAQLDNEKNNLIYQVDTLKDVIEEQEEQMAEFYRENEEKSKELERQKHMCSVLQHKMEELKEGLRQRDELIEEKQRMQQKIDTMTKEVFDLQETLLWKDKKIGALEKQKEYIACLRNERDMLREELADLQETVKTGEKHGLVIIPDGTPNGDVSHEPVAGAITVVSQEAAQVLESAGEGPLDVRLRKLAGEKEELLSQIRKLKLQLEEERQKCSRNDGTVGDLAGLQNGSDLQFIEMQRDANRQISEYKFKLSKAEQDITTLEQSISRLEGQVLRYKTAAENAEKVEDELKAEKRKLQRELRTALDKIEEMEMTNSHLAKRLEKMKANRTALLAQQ
UniProt P53667: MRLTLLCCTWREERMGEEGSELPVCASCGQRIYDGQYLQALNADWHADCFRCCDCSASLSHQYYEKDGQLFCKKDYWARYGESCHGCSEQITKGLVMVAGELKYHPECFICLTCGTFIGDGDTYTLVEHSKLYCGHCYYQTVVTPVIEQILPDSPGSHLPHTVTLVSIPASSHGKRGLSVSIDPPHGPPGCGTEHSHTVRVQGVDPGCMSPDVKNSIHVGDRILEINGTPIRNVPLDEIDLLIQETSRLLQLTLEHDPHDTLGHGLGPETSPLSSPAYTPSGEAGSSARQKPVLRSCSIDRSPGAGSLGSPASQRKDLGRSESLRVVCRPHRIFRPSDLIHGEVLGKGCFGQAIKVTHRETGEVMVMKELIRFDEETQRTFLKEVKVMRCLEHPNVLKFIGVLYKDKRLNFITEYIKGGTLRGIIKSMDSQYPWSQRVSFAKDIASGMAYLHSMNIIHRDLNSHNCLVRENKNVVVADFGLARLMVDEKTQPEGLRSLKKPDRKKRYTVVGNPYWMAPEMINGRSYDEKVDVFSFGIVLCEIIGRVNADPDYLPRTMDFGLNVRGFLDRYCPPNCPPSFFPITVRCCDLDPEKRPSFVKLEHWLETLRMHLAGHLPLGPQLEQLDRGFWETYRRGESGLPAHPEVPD
UniProt Q96PV6, whole entry, looked up: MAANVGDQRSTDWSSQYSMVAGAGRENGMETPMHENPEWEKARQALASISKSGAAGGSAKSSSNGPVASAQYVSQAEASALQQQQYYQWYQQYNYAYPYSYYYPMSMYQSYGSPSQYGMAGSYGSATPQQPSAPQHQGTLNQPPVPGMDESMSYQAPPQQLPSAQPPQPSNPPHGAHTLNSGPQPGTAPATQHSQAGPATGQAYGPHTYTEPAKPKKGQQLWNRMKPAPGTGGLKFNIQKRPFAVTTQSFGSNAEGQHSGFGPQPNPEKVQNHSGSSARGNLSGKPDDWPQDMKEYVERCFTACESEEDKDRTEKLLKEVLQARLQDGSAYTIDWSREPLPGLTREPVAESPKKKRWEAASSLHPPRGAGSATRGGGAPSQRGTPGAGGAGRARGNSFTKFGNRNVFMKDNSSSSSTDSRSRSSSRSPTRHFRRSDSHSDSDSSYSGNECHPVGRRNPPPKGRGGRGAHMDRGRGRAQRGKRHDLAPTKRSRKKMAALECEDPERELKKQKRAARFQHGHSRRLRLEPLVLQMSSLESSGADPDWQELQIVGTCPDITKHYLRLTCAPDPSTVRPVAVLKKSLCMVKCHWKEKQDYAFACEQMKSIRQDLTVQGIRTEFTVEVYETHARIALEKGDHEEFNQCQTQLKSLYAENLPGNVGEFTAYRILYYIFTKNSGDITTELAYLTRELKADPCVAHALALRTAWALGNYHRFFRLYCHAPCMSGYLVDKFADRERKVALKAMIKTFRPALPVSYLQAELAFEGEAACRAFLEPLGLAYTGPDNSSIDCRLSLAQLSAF
UniProt P18858, whole entry, looked up: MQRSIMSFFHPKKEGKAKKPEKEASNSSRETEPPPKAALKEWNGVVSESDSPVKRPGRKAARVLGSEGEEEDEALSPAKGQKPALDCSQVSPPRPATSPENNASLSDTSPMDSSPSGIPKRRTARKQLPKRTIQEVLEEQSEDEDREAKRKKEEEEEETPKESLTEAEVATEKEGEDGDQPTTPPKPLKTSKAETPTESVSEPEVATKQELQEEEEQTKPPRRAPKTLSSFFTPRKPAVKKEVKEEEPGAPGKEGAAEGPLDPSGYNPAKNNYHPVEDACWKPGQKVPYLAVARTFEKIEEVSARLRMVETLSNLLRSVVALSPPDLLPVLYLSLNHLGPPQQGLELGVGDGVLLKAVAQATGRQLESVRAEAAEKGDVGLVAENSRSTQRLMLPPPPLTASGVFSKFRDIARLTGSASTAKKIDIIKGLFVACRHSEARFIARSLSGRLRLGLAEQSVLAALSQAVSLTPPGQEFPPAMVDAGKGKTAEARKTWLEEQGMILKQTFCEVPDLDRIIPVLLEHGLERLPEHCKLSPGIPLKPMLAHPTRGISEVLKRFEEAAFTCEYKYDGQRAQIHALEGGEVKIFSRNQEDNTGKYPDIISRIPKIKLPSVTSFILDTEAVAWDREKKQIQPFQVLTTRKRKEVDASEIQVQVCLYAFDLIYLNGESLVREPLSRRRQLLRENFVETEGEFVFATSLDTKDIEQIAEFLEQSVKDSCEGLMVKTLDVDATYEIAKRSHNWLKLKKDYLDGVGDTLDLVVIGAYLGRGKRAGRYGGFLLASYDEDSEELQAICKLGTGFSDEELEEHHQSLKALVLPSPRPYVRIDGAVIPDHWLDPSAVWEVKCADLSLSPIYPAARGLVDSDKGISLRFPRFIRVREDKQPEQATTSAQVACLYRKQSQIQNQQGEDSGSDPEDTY

Compound: CC1Cc2ccccc2N1C(=O)C1CCCN(C1)C(=O)CCl (mixture of isomers) [TRIM25 ligand 11 (diastereomer mixture)]
Assay: probe-labelled cysteine peptide fold change vs DMSO (competition) (log2 fold change); higher = less target engagement (more negative = stronger competition)
Conditions: THP-1, incubation time: 4 h
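Further: competitive chemoproteomic profiling in live THP-1 cells with an iodoacetamide desthiobiotin (IA-DTB) probe, comparing probe-labelled peptide intensities in compound-treated cells against DMSO-treated controls.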

Target	probe-labelled cysteine peptide fold change (10 µM)	probe-labelled cysteine peptide fold change (50 µM)
LIMD1_Q9UGP4_630_DYHVECYHCEDCGLELNDEDGHR (UniProt Q9UGP4)	0.247	0.0861
LPXN_O60711_199_SGLAYCPNDYHQLFSPR (UniProt O60711)	0.0524	0.166
LGALS9_O00182_316_GQSFSVWILCEAHCLK (UniProt O00182)	-0.0393	0.245
LRRC47_Q8N1G4_224_TLDLSNNQLSEIPAELADCPK (UniProt Q8N1G4)	0.184	0.159
LSM7_Q9UK45_76_QLGLVVCR (UniProt Q9UK45)	-0.069	0.165
LSM2_Q9Y333_26_DVVVELKNDLSICGTLHSVDQYLNIK (UniProt Q9Y333)	-0.265	-0.208
LRCH1_Q9Y2L9_251_VLVIPICFR (UniProt Q9Y2L9)	-0.0102	-0.0985
LRPPRC_P42704_113_VFNDTCR (UniProt P42704)	-0.0606	0.0708
LRRFIP2_Q9Y608_435_HMCSVLQHK (UniProt Q9Y608)	-0.0488	-0.191
LIMK1_P53667_84_YGESCHGCSEQITK (UniProt P53667)	0.29	-0.212
LENG8_Q96PV6_643_GDHEEFNQCQTQLK (UniProt Q96PV6)	0.132	0.0994
LIG1_P18858_719_DSCEGLMVK (UniProt P18858)	-0.119	-0.189

Exported as a markdown table: part of the list above

| Target | probe-labelled cysteine peptide fold change (10 µM) | probe-labelled cysteine peptide fold change (50 µM) |
| --- | --- | --- |
| LIMD1_Q9UGP4_630_DYHVECYHCEDCGLELNDEDGHR (UniProt Q9UGP4) | 0.247 | 0.0861 |
| LPXN_O60711_199_SGLAYCPNDYHQLFSPR (UniProt O60711) | 0.0524 | 0.166 |
